Data taken from paper PMC10210303.
These are yes or no findings as the source states them, for the method shown. Binding seen in cells or lysates may run through a third protein.

Chains of the proteins cited; added tags and fusions are not shown.
UniProt Q86U44: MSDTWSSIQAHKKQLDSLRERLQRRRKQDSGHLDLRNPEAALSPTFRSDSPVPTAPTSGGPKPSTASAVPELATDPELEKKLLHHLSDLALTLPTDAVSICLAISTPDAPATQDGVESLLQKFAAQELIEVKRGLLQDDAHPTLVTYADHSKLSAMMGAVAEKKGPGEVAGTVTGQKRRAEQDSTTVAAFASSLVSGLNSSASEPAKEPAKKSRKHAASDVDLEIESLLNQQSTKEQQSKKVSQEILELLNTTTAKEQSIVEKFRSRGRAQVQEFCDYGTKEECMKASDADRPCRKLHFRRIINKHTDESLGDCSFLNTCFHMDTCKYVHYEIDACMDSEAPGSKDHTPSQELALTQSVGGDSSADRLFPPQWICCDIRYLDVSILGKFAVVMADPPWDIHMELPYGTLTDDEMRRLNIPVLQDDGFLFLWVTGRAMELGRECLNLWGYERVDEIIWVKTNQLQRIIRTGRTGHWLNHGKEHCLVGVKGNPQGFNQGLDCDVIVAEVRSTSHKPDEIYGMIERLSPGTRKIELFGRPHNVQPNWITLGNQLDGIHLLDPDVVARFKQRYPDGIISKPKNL
UniProt P40763: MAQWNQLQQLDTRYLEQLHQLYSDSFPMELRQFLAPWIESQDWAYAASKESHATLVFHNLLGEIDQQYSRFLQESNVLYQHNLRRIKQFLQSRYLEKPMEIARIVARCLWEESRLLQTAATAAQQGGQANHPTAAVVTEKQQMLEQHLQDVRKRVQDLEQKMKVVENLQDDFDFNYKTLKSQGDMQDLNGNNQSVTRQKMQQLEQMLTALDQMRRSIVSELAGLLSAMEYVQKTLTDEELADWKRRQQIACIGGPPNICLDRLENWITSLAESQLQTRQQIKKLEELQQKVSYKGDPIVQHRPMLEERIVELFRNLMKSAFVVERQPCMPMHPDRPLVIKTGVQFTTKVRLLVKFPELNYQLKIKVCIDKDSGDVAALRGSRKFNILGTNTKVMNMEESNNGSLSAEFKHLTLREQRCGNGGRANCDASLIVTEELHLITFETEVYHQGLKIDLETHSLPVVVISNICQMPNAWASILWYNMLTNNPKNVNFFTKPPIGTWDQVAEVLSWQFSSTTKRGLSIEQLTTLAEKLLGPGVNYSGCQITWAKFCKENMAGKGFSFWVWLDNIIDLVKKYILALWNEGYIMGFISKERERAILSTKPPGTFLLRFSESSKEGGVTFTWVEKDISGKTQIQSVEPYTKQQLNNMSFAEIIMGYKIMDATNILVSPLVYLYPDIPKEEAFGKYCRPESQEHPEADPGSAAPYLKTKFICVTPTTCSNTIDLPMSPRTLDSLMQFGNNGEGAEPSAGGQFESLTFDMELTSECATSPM

Target: methyltransferase-like 3 (METTL3) (human (endogenous in MHCC97H and HCCLM3)) (UniProt Q86U44)
Experiment: co-IP; Co-IP of STAT3 and METTL3 (Fig. S2D, E); cells and precipitated protein not told in the text shown

signal transducer and activator of transcription 3 (STAT3) (from UniProt P40763 1-770)
binding: no binding
